Test system: HEK293 cells
Test: Processing of V5-tagged PCSK9 mutants in transiently transfected HEK293 cells (Western blot, V5 mAb)
Type: cell-based
Settings: media and lysates of HEK293 cells; FIG. 5

| Substance | N-terminally truncated N2 form (loss of ~8 kDa from N1) |
| --- | --- |
| R237W: natural PCSK9 variant R237W (Table 1) | occurs also |
| H226A: active site mutant of PCSK9, an inactive enzyme form that remains as zymogen in the ER [reference compound] | remains in the ER as propCSK9 |
| F216L: natural PCSK9 mutant Phe216-to-Leu, hypercholesterolemia-associated | significantly decreased |
| R218S: natural PCSK9 mutant Arg218-to-Ser, hypercholesterolemia-associated, Furin/PC5A-resistant | not observed |
